Three sequences from PMC1800861, “Characterization of an Oct1 orthologue in the channel catfish, Ictalurus punctatus: A negative regulator of immunoglobulin gene transcription?” can be followed below.

Data set [1] has as its system Oct2 (endogenous). Kind of data set: competition with a labelled probe. The following applies: scrambled competitor vs N3 probe, bands not abolished; 1x Promega binding buffer (from 5x, composition not given), 30 min preincubation at room temperature then 30 min with probe; 5% native PAGE at 4°C; 100x competitor; protein in an extract; label: none (cold competitor).
Data set [2] deals with T1, Oct1 (endogenous) (UniProt O57602).
T1 sequence (looked up, limits assumed): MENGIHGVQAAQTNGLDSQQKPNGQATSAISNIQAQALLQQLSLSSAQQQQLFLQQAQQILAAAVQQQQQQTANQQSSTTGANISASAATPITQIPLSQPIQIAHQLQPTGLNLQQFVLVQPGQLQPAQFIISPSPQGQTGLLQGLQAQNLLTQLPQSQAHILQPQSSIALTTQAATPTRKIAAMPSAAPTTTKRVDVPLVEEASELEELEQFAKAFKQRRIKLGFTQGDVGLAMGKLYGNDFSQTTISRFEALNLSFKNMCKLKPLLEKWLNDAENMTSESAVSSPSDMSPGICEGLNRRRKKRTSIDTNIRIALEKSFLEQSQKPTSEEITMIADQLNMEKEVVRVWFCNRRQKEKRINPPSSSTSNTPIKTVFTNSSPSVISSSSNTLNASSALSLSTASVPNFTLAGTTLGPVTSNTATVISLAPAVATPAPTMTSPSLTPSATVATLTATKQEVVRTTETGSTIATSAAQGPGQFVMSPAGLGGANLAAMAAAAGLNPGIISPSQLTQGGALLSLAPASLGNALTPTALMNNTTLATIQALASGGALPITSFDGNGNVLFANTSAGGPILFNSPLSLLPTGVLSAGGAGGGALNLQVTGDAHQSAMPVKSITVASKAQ
In words: competition with a labelled probe. The conditions noted are these: scrambled competitor vs N3 probe, bands not abolished; 1x Promega binding buffer (from 5x, composition not given), 30 min preincubation at room temperature then 30 min with probe; 5% native PAGE at 4°C; 100x competitor; protein in an extract; label: none (cold competitor).

The test system of data set [3] is Oct2 (endogenous). Kind of data set: EMSA supershift. The following applies: anti-Oct2 supershift; 1x Promega binding buffer (from 5x, composition not given), 30 min preincubation at room temperature then 30 min with probe; 5% native PAGE at 4°C; 100x competitor; protein in an extract; label: 32P-dATP Klenow fill-in. For orientation: A gel shift assay detects complexes by their altered migration in electrophoresis.

Data set [4] concerns the target T1, Oct1 (endogenous). Kind of data set: EMSA supershift. The conditions noted are these: anti-Oct1 supershift; 1x Promega binding buffer (from 5x, composition not given), 30 min preincubation at room temperature then 30 min with probe; 5% native PAGE at 4°C; 100x competitor; protein in an extract; label: 32P-dATP Klenow fill-in.
Data set [5] concerns the target T2, Oct2β (in vitro translated) (Ictalurus punctatus (channel catfish)) (UniProt O13007).
T2 sequence (looked up, limits assumed): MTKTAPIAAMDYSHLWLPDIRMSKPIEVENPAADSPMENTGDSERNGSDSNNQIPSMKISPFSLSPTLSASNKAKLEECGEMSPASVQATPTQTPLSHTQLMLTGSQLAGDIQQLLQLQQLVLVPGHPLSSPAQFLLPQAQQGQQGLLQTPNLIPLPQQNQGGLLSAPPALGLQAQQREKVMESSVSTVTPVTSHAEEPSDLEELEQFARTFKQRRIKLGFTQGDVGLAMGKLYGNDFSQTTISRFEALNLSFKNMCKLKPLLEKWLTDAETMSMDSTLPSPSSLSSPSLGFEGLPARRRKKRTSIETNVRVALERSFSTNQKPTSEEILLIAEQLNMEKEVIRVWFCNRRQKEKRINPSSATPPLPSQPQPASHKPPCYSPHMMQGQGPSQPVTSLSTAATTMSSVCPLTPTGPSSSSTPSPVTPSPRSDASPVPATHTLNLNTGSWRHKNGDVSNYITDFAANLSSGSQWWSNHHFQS
Kind of data set: competition with a labelled probe. The following applies: 100x unlabeled competitor vs N1 probe, results stated similar to Oct1; 1x Promega binding buffer (from 5x, composition not given), 30 min preincubation at room temperature then 30 min with probe; 5% native PAGE at 4°C; 100x competitor; protein translated in vitro; label: none (cold competitor).

For at least one entry, the source does not settle the construct or the ends of the probe. For some assays here: A negative result means that nothing was seen under these conditions. For some assays here: At least one verdict rests on a figure or table, not on a statement of the authors. For some assays here: Where a protein sequence is shown, tags need not be part of it. For some assays here: Where cells or extracts were used, other partners may take part.

Regarding “CAATATGAATACAAAATATACCT / CATAGGTATATTTTGTATTCATA [scrambled consensus octamer (G-1249/G-1250)]”, the binding result in data set [1] and in data set [2] was “no binding” each time.
Regarding “CAATATGAATATGCAAATTACCT / CATAGGTAATTTGCATATTCATA [consensus octamer (G-656/G-567)]”, the binding result in data set [3] and in data set [4] was “binds” throughout.
On to “GCAAAACACTGCTATATGAAAGTCTAAT / CATTATTAGACTTTCATATAGCAGTGTT [scrambled Eμ3' first octamer (G-2132/G-2133)]”, for which the binding result in data set [5] is given as “no binding”.
